Results published in PubChem BioAssay AID504810 (National Center for Advancing Translational Sciences (NCATS), 2011).
Where “and” joins values, the source holds several entries; their conditions need not be identical. Equal entries are not always repeated. Out of some 330,000 compounds screened, about 670 (0.2%) were called active. The shares of active, inactive and inconclusive entries below differ from those in the screen.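 Rule for the calls: active = activity change below a set negative limit, meaning inhibition stronger than a set level (cut at about -70% in these data); inconclusive = activity change between two set negative limits; inactive = the rest.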

The chains behind the UniProt entries cited, without tags or fusion partners.
UniProt P16473, whole entry, looked up: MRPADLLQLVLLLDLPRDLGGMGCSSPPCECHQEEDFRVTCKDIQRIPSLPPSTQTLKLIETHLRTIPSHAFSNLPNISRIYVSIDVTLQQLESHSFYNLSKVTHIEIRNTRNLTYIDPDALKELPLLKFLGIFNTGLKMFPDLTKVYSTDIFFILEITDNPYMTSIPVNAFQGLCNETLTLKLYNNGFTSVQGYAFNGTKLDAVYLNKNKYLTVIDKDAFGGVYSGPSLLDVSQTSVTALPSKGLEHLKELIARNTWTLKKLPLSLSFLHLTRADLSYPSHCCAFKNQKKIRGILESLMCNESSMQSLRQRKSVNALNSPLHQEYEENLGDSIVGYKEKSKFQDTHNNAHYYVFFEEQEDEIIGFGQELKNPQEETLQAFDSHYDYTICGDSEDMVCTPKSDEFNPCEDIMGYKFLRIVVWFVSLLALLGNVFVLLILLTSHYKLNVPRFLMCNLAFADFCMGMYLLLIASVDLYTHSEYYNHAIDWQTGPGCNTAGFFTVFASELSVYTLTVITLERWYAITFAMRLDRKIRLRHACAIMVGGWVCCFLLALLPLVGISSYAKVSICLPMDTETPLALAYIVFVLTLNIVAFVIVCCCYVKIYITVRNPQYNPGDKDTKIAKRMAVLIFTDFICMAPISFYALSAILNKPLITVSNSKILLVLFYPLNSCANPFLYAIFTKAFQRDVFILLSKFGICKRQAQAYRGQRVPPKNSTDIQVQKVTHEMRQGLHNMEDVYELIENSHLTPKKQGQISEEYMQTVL

What follows are molecules tested against Thyrotropin receptor (Homo sapiens) (UniProt P16473) (assay: Antagonists of the Thyroid Stimulating Hormone Receptor: HTS campaign). Conditions: TSHR-expressing cells, TSH-stimulated cAMP HTRF, 2 h; at 11.5 µM; hits give low values.
From the text: The thyroid-stimulating hormone receptor (TSHR) is a member of the 7 trans-membrane-spanning receptor (7TMR) family of cell surface receptors. TSHR-mediated hyperthyroidism is important in thyroid pathology. The development of small molecule antagonists of TSHR may lead to therapeutic approaches for TSHR-mediated hyperthyroidism caused by constitutively activating mutations or stimulating auto-antibodies associated with Graves' disease. Graves' disease is the leading cause of hyperthyroidism and is caused by autoantibodies that stimulate TSHR (TsAbs) causing thyroid growth and unregulated overproduction of thyroid hormones and existing treatments have liabilities (agranulocytosis). In addition, TSHRs are known to be expressed in multiple extrathyroidal tissues including bone, brain, kidney, testis, fat and cells of the immune system but the role of the TSHR in these tissues is not clear. Therefore, TSHR antagonists/inverse agonists could be used as probes of extrathyroidal TSHR function. Finally, TSHR inverse agonists, which are a subclass of antagonists that inhibit agonist-independent (or basal or constitutive) TSHR signaling, could be used to inhibit TSH-independent signaling in patients with recurrent or metastatic thyroid cancer who are receiving thyroid hormone to suppress TSH. In collaboration between scientist from the NCGC and the NIDDK, a miniaturized HTRF high-throughput screen was developed. It's a cell based assay, where an anti cAMP antibody contains a fluorescent cryptate tag (excitation 337 nm; emission 620 nm) and the acceptor is cAMP-d2 (excitation 620 nm; emission 665 nm). When antibody and cAMP-d2 interact and are excited by a 337 nm light, a FRET occurs resulting in emission at 665 nm. The assay is competition between cAMP-d2 and cAMP (from the cell lysate). The homogeneous protocol allows for one step dispense after stimulation that is automation friendly. NIH Chemical Genomics Center [NCGC] NIH Molecular Libraries Probe Centers Network [MLPCN] MLPCN Grant: MH090855-01 Assay Submitter (PI): Marvin Gerhengorn
1. 3ul of 200 TSHR freshly harvested cells/well are dispensed into a 1536 TC-treated white solid bottom plate. 2. Through pintool addition, 23nl of compounds and control in 100% DMSO are added to the plate. 3. Then 1ul of EC80 TSH (4nM final) is added to the plate. 4. Assay is incubated at 37 deg C for 2 hours. 5. 2ul of cAMP antibody diluted 1:20 in lysis buffer is added. 6. Immediately following, 2ul of d2 diluted 1:20 in HBSS is added seperately. 7. The assay is incubated for 30 minutes at ambient room temperature. 8. The result is obtained by using a ViewLux read-out with HTRF settings.
% is set by controls: 0 for no effect and ±100 for the full control effect.

| Structure (SMILES) | activity change, negative = inhibition |
| --- | --- |
| O=C1CN=C(c2ccccc2)c2c(sc3c2CCCC3)N1 | inactive: -7.2% |
| CNc1cc(Cl)c2nonc2c1[N+](=O)[O-] | active: -88.7% |
| Nc1cc(Cl)c2nonc2c1[N+](=O)[O-] | inconclusive: -57.1% |
| Cc1ccc(-n2c(C)nc3ccccc3c2=O)c(C)c1 | active: -72.4% |
| COC(=O)C1=C(c2ccc(-c3ccccc3)c(F)c2)C[C@@H]2CC[C@H]1N2C(=O)NCc1ccc(F)cc1 | active: -85% |
| O=[N+]([O-])/C=C/c1ccc2c(c1)OCO2 | inconclusive: -50.9% |
| Cc1ccc(/C=C2\C(=O)NC(=S)N(c3ccc(F)cc3)C2=O)o1 | inconclusive: -57.7% |
| COC(=O)C1=C(c2ccc(-c3ccccc3)c(F)c2)C[C@@H]2CC[C@H]1N2C(=O)N1CCCC1 | inconclusive: -50.4% |
| Nc1ccc(C2(c3ccc(N)cc3)c3ccccc3-c3ccccc32)cc1 | active: -102% |
| C[C@@H]1O[C@@H](O[C@H]2C[C@@H](O)[C@]3(CO)[C@H]4[C@H](O)C[C@]5(C)[C@@H](C6COC(=O)C6)CC[C@]5(O)[C@@H]4CC[C@]3(O)C2)[C@H](O)[C@H](O)[C@H]1O (some centres undefined) | inconclusive: -54.3% |
| COC(=O)C1=C(c2ccc(-c3ccccc3)c(F)c2)C[C@@H]2CC[C@H]1N2C(=O)NCCOc1ccccc1 | active: -89.1% |
| CC(C)c1ccc(N=Nc2c(O)[nH]c(=O)[nH]c2=O)cc1 | inactive: -1.95% |
| C[C@]12CC[C@H](O)C[C@H]1CC[C@@H]1C2CC[C@]2(C)[C@@H](C3=CC(=O)OC3)[C@@H](O)C[C@]12O (some centres undefined) | active: -81.8% |
| O=C1CC(C(=O)N2CCC3(CC2)OCCO3)CN1CCc1ccccc1 (centres undefined) | inactive: -15.1% |
| COC(=O)C1=C(c2ccc(OC(F)(F)F)cc2)C[C@@H]2CC[C@H]1N2C(=O)NCCOc1ccccc1 | inconclusive: -59.1% |
| CCCCc1ccc(C(=O)O)nc1 | inconclusive: -58.3% |
| Cc1ccc(-c2cc(-c3ccc(C)cc3)[n+](-c3ccccc3)c(-c3ccc(C)cc3)c2)cc1 | inconclusive: -63.2% |
| Cc1ccccc1-[n+]1c(-c2ccccc2)cc(-c2ccccc2)cc1-c1ccccc1 | active: -74.8% |
| CCN1/C(=C\C=C\C2=[N+](CC)c3ccccc3C2(C)C)C(C)(C)c2ccccc21 | inconclusive: -68.2% |
| CNc1ccc2oc(C[C@H]3O[C@@]4(CC[C@H]3C)O[C@H]([C@H](C)C(=O)c3ccc[nH]3)[C@H](C)C[C@H]4C)nc2c1C(=O)O | active: -88.3% and active: -90% |
| COC1CC(OC2CCC3(C)C(CCC4C3CCC3(C)C(C5=CC(=O)OC5)C(OC(C)=O)CC43O)C2)OC(C)C1OC1OC(COC2OC(CO)C(O)C(O)C2O)C(O)C(O)C1O (centres undefined) | inconclusive: -65.9% |
| COc1ccccc1N1CCN(Cc2ccc(Br)cc2)CC1 | inactive: -3.16% |
| COC(=O)C1=C(c2ccc(-c3ccccc3)c(F)c2)C[C@@H]2CC[C@H]1N2C(=O)NCCCOC(C)C | active: -83.1% |
| COc1cccc(NP(=O)(Oc2ccc(Cl)cc2)Oc2ccc(Cl)cc2)c1 | inactive: -5.03% |
| CC(=O)OC1CC[C@]2(C#N)[C@H]3CC[C@]4(C)[C@H](C5C=CC(=O)O5)CCC4(O)C3CCC2(O)C1 (some centres undefined) | inconclusive: -56.9% |
| O=C1C(=O)c2ccccc2-c2ccccc21 | inconclusive: -64.7% |
